Data from publication PMC7073074.
No constants are given. Whether binding was seen depends on the method and setting. In cells and extracts the contact can be indirect. A yes stands for co-enrichment or nearness to the bait. Other partners may have been found. Tags and fused reporters may be left off the sequences shown.

Protein sequences, listed by entry. Tags and fused reporters are not part of them.
UniProt Q54K81: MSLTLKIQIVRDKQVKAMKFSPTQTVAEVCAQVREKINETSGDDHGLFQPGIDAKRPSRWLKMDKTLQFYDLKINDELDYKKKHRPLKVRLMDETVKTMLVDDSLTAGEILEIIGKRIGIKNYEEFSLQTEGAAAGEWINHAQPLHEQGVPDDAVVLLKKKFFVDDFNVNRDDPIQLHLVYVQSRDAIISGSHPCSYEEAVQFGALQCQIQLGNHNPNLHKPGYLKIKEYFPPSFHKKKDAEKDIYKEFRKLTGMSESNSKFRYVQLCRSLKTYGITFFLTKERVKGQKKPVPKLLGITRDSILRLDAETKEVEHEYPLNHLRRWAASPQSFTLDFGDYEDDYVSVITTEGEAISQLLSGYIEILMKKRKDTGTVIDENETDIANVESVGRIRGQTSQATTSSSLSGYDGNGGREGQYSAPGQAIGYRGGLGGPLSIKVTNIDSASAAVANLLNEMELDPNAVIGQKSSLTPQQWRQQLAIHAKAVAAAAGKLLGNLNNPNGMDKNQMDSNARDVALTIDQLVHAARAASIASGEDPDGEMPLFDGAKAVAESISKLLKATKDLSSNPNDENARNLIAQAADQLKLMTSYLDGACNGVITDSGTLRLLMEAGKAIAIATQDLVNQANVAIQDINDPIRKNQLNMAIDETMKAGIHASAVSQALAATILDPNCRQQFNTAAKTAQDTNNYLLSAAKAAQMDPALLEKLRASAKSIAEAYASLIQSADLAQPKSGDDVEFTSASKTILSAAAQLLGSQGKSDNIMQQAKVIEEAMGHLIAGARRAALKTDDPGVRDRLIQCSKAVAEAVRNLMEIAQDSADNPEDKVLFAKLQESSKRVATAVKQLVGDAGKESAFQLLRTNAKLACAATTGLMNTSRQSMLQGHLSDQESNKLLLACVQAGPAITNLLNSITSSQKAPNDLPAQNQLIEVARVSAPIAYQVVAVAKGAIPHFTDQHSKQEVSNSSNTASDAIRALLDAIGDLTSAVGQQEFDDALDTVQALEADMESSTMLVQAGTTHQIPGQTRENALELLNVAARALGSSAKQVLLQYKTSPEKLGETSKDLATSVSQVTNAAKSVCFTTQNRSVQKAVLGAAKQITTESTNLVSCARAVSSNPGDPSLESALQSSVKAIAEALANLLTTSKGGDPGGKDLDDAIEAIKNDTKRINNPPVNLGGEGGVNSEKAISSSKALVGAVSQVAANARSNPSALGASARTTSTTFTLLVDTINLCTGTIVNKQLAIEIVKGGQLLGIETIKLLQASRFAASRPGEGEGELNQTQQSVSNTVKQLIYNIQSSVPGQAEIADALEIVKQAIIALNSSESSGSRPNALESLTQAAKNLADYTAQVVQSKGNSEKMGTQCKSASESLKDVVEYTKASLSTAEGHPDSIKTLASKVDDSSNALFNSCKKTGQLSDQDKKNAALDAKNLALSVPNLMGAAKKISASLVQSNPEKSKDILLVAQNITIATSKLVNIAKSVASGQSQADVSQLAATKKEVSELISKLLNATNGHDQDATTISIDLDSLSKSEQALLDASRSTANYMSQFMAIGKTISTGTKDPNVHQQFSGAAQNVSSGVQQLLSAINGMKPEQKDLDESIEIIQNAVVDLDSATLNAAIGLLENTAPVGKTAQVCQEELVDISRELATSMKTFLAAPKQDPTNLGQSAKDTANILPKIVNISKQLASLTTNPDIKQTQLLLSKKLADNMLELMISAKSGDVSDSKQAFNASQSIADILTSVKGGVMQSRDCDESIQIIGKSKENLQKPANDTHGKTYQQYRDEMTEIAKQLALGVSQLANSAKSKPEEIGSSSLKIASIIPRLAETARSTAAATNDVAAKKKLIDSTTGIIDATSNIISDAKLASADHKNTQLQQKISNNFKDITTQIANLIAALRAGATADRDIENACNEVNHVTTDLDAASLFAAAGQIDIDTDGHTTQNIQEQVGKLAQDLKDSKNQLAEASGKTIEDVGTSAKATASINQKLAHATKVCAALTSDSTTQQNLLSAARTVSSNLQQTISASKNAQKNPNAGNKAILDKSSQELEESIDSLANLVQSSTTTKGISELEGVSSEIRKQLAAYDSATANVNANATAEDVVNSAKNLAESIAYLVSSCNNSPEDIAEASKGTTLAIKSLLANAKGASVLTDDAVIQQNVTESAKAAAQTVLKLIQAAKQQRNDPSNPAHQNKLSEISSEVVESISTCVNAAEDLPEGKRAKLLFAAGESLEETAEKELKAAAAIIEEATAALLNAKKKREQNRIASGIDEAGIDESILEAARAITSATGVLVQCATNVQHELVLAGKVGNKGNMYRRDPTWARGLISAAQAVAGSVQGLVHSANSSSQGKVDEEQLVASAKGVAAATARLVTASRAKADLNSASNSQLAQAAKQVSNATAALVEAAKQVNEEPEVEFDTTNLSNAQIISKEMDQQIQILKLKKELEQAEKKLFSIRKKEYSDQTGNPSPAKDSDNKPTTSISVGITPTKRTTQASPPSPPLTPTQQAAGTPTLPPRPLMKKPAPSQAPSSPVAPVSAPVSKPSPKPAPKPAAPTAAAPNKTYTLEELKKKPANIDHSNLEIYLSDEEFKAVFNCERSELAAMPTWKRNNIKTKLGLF

Key:
[1] = target: T1, FLAG-tagged coronin A (Dictyostelium discoideum) (UniProt P27133); test: affinity purification with mass spectrometry; anti-FLAG M2 on lysates of cells with FLAG-CorA or FLAG-CorAΔCC against untagged CorA; low salt TBS, 1% Triton X-100; cells harvested at 110 h
T1 sequence: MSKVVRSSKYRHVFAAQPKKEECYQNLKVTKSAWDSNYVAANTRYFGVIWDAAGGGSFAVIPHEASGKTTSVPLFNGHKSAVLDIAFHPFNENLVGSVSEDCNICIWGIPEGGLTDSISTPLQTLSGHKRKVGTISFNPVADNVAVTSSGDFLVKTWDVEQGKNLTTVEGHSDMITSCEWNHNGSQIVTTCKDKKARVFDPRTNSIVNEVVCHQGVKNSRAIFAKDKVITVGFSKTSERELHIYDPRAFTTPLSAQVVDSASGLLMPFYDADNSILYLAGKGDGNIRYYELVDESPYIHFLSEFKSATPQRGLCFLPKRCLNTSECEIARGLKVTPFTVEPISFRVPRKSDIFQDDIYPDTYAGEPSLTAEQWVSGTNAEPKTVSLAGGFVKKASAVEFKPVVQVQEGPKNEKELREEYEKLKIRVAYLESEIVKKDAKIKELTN

[2] = target: T1, FLAG-tagged coronin A (Dictyostelium discoideum); test: affinity purification with mass spectrometry; anti-FLAG M2 on lysates of corA- cells with FLAG-CorA against cells with untagged CorA; low salt TBS (25 mM NaCl), 1% Triton X-100, 4 °C; samples of all time points pooled; cutoff log2ratio > 1.5, q-value < 0.05
[3] = target: T1, FLAG-tagged coronin A (Dictyostelium discoideum); test: affinity purification with mass spectrometry; anti-FLAG M2 on lysates of cells with FLAG-CorA or FLAG-CorAΔCC against untagged CorA; low salt TBS, 1% Triton X-100; cells harvested at 48 h

actobindin-B/C (Dictyostelium discoideum (endogenous))
binding [1]: binds
binding [2]: binds

talin-B (from UniProt Q54K81 1-2614)
binding [3]: binds
binding [2]: binds
